Data from patent US9186356B2, “Methods for treating frontotemporal lobar degeneration with ubiquitinated inclusions (FTLD-U)” (Academia Sinica, priority 2011, dated 2015).
For at least one compound, name, drawing or mass did not settle the structure.

How the values were obtained:
LC3 [1] = assay: Immunofluorescence staining of LC3 puncta; assay type: in vivo; conditions: cortex region of rapamycin-treated FTLD-U mice vs vehicle-treated
TDP-43 = assay: Western blot of TDP-43 in soluble/RIPA fractions of cortex and hippocampus extracts; assay type: in vivo; conditions: 6 month-old FTLD-U mice
LC3 [2] = assay: Western blot of LC3 in cortex and hippocampus extracts; assay type: in vivo, mice; conditions: rapamycin vs vehicle
[3] = rapamycin pretreatment; cited from earlier work

CO[C@H]1C[C@@H]2CC[C@@H](C)[C@@](O)(O2)C(=O)C(=O)N2CCCC[C@H]2C(=O)O[C@H]([C@H](C)C[C@@H]2CC[C@@H](O)[C@H](OC)C2)CC(=O)[C@H](C)/C=C(\C)[C@@H](O)[C@@H](OC)C(=O)[C@H](C)C[C@H](C)/C=C/C=C/C=C/1C [rapamycin]
LC3-positive puncta (LC3 [1]): significantly elevated | amount of 35 KD/25 KD TDP-43 fragments in the soluble (RIPA) fraction (TDP-43): did not reduce | ratio LC3-II/tubulin (LC3 [2]; FTLD-U mice): significantly increased | ratio LC3/tubulin (LC3 [2]; FTLD-U mice): significantly increased | ratio LC3-II/tubulin (LC3 [2]; WT mice): significantly increased | ratio LC3/tubulin (LC3 [2]; WT mice): significantly increased | apoptosis including neuronal death [3]: protected against apoptosis
